Data taken from PMC3254663.
Results are given in words; binding and its absence hold for the method and conditions named. Binding seen in cells or lysates may run through a third protein. A result given as binding can be weak or reduced; the word gives no strength. Where a sequence is shown, tags or fusion partners need not be part of it.

The substances below were run against T1, GST-Smo625-753 (Drosophila) (UniProt P91682) (assay: pull-down; extracts from S2 cells expressing Flag-USP8, with or without Hh treatment, incubated with bacterially expressed GST-Smo fusion proteins; bound USP8 detected with anti-Flag; only the target purified).
T1 sequence: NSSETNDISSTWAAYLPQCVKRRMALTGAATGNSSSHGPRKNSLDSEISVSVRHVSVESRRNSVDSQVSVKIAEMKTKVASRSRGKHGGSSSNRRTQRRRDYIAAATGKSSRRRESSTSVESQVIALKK

Row | Substance | binding
1 | Flag-tagged ubiquitin-specific protease 8 (Flag-USP8) (Drosophila) (enzyme) | binds

The substances below were run against T2, Myc-tagged Smoothened (Myc-Smo) (Drosophila) (UniProt P91682) (assay: co-IP; S2 cells co-transfected with Myc-Smo constructs and HA-USP8 constructs; immunoprecipitation with anti-Myc, Western blot with anti-HA).
T2 sequence: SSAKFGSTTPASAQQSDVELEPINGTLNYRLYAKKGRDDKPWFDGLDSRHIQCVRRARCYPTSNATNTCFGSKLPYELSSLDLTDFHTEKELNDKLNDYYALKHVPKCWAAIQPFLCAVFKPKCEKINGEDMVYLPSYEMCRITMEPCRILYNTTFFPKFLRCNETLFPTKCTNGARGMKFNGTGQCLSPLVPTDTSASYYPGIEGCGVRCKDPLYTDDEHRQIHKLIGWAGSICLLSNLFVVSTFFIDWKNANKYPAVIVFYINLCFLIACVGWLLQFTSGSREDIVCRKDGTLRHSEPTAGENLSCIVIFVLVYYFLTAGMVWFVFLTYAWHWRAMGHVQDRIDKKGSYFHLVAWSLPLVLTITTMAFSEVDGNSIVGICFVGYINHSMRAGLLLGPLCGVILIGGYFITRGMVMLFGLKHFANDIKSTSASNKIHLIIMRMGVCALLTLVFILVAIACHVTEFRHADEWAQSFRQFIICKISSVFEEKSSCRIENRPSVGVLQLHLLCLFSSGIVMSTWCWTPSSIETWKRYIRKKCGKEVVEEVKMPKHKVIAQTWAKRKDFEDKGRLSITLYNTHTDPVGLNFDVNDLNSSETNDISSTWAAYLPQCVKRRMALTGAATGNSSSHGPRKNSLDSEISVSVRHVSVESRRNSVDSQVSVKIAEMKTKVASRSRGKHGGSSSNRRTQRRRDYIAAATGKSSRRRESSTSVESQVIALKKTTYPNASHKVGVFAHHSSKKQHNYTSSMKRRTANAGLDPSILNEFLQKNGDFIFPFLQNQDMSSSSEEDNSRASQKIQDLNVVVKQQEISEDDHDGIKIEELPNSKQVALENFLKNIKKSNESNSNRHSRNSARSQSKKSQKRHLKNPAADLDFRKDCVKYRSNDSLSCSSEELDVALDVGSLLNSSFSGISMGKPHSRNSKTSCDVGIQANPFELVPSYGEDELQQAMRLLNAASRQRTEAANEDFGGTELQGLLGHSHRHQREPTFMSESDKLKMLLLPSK

Row | Substance | binding
2 | HA-USP8NT1 (aa 128-896) (Drosophila) (domain or fragment) | binds
3 | HA-USP8NT2 (aa 287-896) (Drosophila) (domain or fragment) | binds
4 | HA-USP8NT3 (aa 523-896), the catalytic domain of USP8 (Drosophila) (domain or fragment) | binds
5 | HA-tagged ubiquitin-specific protease 8 (HA-USP8) (Drosophila) (enzyme) | binds

Next, values leading:

Row | binding | Substance
6 | no binding | HA-USP8CT1 (aa 1-534) (Drosophila) (domain or fragment)
7 | no binding | HA-USP8CT3 (aa 1-286) (Drosophila) (domain or fragment)
